# From PMC11846946
# Sequences of proteins named here, by UniProt entry; tags and fusion partners are left off. Residues count along the entry.
# UniProt P28986, residues 25-511: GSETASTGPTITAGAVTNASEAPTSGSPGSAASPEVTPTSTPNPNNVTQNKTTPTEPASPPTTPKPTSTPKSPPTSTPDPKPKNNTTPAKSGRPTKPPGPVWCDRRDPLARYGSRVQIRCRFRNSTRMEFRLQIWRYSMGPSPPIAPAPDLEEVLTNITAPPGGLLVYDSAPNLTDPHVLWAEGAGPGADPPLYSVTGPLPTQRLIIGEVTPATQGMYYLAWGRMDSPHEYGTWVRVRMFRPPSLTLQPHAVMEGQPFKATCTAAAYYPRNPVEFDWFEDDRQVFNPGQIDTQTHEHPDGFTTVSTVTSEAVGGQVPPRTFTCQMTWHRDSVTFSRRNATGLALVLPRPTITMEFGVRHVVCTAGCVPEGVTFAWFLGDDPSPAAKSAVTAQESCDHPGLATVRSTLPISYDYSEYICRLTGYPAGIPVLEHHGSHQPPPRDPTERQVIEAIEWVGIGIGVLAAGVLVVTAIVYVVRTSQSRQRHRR
# Results are given in words; binding and its absence hold for the method and conditions named. Binding seen in cells or lysates may run through a third protein.
# Biological target: Apolipoprotein E isoform 3 (human (endogenous in Huh-7)) (UniProt P02649)
# Assay: co-IP; Huh-7 cells (expressing ApoE 3) mock treated or infected with HSV1 at MOI 10; lysis in 0.05 M Tris-HCl pH 8, 0.15 M NaCl, 1% Triton X-100; precipitation with anti-ApoE or anti-HSV1-gE antibodies on protein A agarose, 4 °C overnight; blots for ApoE, gB, gC, gD, gE
row,Substance,binding
1,HSV1 glycoprotein B (from UniProt P06437 31-904),no binding
2,HSV1 glycoprotein C (from UniProt P28986 25-511),no binding
